# Results published in publication PMC12040169 (PLOS Biology, 2025).
# The other results are listed elsewhere or left out.
# Test system: T1, CTL2-GFP (C. trachomatis L2/434/Bu, GFP-expressing)
# T1 construct: L2/434/Bu, GFP-expressing
# Parameters: species or system HeLa; Intracellular C. trachomatis growth in HeLa cells, bulk GFP fluorescence relative to DMSO
# Conditions: bulk GFP, single well; 28.5 h, 10 µM; inhibitor
row,Compound,% of control remaining [%]
1,COc1ccccc1-c1[nH]nc(O)c1Cc1c(Cl)cccc1Cl [CBK107933],105.484
2,CN1CCN(S(=O)(=O)c2ccc(C(C)(C)C)cc2)CC1 [CBK051237],96.7114
3,COc1cccc(N2CCN(CC(CC(=O)Nc3ccccc3)C(=O)O)CC2)c1 (centres unmarked) [CBK286813],140.802
4,N=c1n(CCN2CCCCC2)c2ccccc2n1CC(O)COc1ccccc1 (centres unmarked) [CBK262451C],100
5,CCCCOc1ccc(S(=O)(=O)Nc2ccc(-c3cn4ccccc4n3)cc2)cc1 [CBK264374],132.099
6,COc1ccccc1N1CCN(CC(CC(=O)Nc2ccc3c(c2)OCO3)C(=O)O)CC1 (centres unmarked) [CBK286822],123.248
7,COc1cc(/C=C2/SC(=N)NC2=O)ccc1OCc1ccccc1[N+](=O)[O-] [CBK262181],118.979
8,COc1ccccc1N1CCN(C(=O)c2ccc3c(c2)no[n+]3[O-])CC1 [CBK091510],93.958
9,Cn1cc(CC(=O)N2CCCc3ccccc32)c2ccccc21 [CBK200349],98.3428
10,Cc1nn(CC(=O)N2CCC(C)CC2)c(=O)c2cc3occc3n12 [CBK283654],133.199
11,CCN(Cc1ccncc1)C(=O)NCc1ccc(F)cc1 [CBK155146],95.9633
12,COc1ccc(C(=O)N2CCC3(CCN(C(=O)CCSC)C3)C2)cc1OC (centres unmarked) [CBK131786],114.625
13,CC(=O)Nc1cccc(-n2nnnc2SCc2cnn(C)c2)c1 [CBK305471],79.075
14,Cc1csc2c(C3CCCN(C(=O)c4cc[nH]n4)C3)nc(C)n12 (centres unmarked) [CBK285238],135.473
15,COCC(C)NC(=O)Cn1c(-c2cccs2)cc2cccnc21 (centres unmarked) [CBK282557],127.492
16,O=C1CSC(Nc2nc(-c3ccccc3)cs2)=N1 [CBK026880],129.761
17,CCOc1ccc(-n2nnnc2SCC(=O)c2ccc(Cl)c(Cl)c2)cc1 [CBK141942],78.1521
18,Cc1cc(C)c2c(C(C)(C)C)nn(-c3ccc(C(=O)O)cc3)c2n1 [CBK267481],126.214
19,Cc1nc(C(Cc2ccsc2)NC(=O)c2ccnn2C)sc1C (centres unmarked) [CBK284778],117.91
20,COC(=O)c1cc(Br)ccc1NC(=O)COc1ccccc1C [CBK263715],113.377
21,CCN(CC)CCN(C)Cc1ccccc1Br [CBK026593],116.337
22,CC(C)[C@H](CO)Nc1nc(-c2ccccc2)cnc1N [CBK063933],72.9219
23,C=CCn1c(Cc2csc(NC(=O)Cc3cc(OC)c(OC)c(OC)c3)n2)n[nH]c1=S [CBK295311],136.047
24,O=C1NC[C@@H](CCC(=O)N2CCCC2)N2C[C@@H](NC(=S)Nc3ccccc3)C[C@@H]12 [CBK289004],107.033
25,Cc1ccccc1NC(=O)c1ccc(Br)o1 [CBK107152],102.772
26,Cc1ccc(C)c2c1c1nc3ccccc3nc1n2Cc1nnc(-c2ccccc2)o1 [CBK268677],148.737
27,COc1nccnc1-c1ccc(Cl)c(Cl)c1 [CBK107110],129.567

# Some of the entries above in another layout.
row	Compound	% of control remaining [%]
24	O=C1NC[C@@H](CCC(=O)N2CCCC2)N2C[C@@H](NC(=S)Nc3ccccc3)C[C@@H]12 [CBK289004]	107.033
25	Cc1ccccc1NC(=O)c1ccc(Br)o1 [CBK107152]	102.772

# Look-ups from above:
# Value of `Cc1cc(C)c2c(C(C)(C)C)nn(-c3ccc(C(=O)O)cc3)c2n1` [CBK267481] under % of control remaining [%]: 126.214
# Value of `Cn1cc(CC(=O)N2CCCc3ccccc32)c2ccccc21` [CBK200349] under % of control remaining [%]: 98.3428

# Following part

row,Compound,% of control remaining [%]
1,C[C@H](Nc1nc(-c2cc(C(F)(F)F)cc(C(F)(F)F)c2)cnc1N)c1ccccc1 [CBK063768],103.794
2,CCn1c(=O)n(CC2(O)CCCOC2)c2cc(S(=O)(=O)N(C)C)ccc21 (centres unmarked) [CBK304788],121.618
3,OC(CSc1ccccc1)CN1CCN(Cc2ccc3c(c2)OCO3)CC1 (centres unmarked) [CBK074761],129.884
4,COc1ccc(SCCCCN2CCC3(CC2)OCCc2c3[nH]c3ccccc23)cc1 [CBK113464T],25.3288
5,O=C(NC(=O)C1CCNCC1)Nc1ccccc1 [CBK034794],121.365
6,CC(C)CC(=O)N1CCC(n2c(=O)oc3ccc(Cl)cc32)CC1 [CBK285477],88.9928
7,CN(C)CC(=O)N1CCc2nc(-c3cccc(F)c3)sc2C1 [CBK281801],116.99
8,CCOc1ccc(Cl)cc1CN(C)C(=O)NCC(C)CN(C)C (centres unmarked) [CBK307500],97.4386
9,CCn1ncc(Br)c1C(=O)Nc1ccc(Cl)cn1 [CBK265826],131.381
10,Cc1cc([N+](=O)[O-])ccc1/N=C\c1ccc(C(=O)O)cc1 [CBK262058],99.0342
11,COC(=O)[C@H]1CN(C(=O)c2cccnc2)C[C@@H]1c1ccc(F)cc1 [CBK283788],157.368
12,O=C(NCC1(c2ccccc2F)CCCC1)c1cc[nH]c(=O)c1 [CBK281378],103.949
13,O=S(=O)(NCCSCc1ccco1)c1ccc(Cl)cc1 [CBK232206],132.395
14,O=[N+]([O-])c1ccc(CN2CCC(Oc3nccnc3OCc3ccc(Cl)c(Cl)c3)CC2)cc1 [CBK083107T],82.411
15,CCNS(=O)(=O)c1ccc2c(c1)N(Cc1cccnc1C)CC2 [CBK306020],145.009
16,COc1ccc(-c2c(-c3ccc(O)cc3O)n[nH]c2C)cc1OC [CBK265552],113.721
17,Cc1ccc2oc(-c3cc(NC(=S)NC(=O)c4ccc([N+](=O)[O-])cc4)ccc3O)nc2c1 [CBK263923],135.825
18,Cc1nn(C)cc1CN(Cc1ccccc1F)CC1CCCO1 (centres unmarked) [CBK283014],83.0405
19,CC(=O)OC1CCn2c1nc1ccccc12 (centres unmarked) [CBK113621],101.16
20,CCCC(C(=O)NCCN(C)C1CCCCC1)n1nc(C)cc1C (centres unmarked) [CBK282039],172.934
21,CC1CC(C)CN(C(=O)Cn2c(-c3nonc3N)nc3ccccc32)C1 (centres unmarked) [CBK264694],127.628
22,CCCn1ccc(CNCC(c2ccnn2C)C(C)C)c1 (centres unmarked) [CBK304861],119.478
23,O=C(Oc1cccc(/C=N/NC(=O)c2ccccn2)c1)c1cccc(Br)c1 [CBK262115],92.5457
24,Cc1cc(N2CCCN(C(=O)CCCOc3ccccc3)CC2)ccn1 [CBK307052],122.667
25,CCCN1CCCN(c2ccc(-n3ccc(C)n3)nn2)CC1 [CBK306304],113.852
26,O=C(C1CCCC1)N1CCCCC1c1n[nH]cc1-c1ccncc1 (centres unmarked) [CBK283427],139.764
27,COc1cccc(/C=C2/NC(=O)N(Cc3ccc(F)cc3)C2=O)c1OCc1cccc(C(=O)O)c1 [CBK265282],115.895

row,Compound,% of control remaining [%]
1,COc1ccc(N2CCN(c3cc(-c4cccc(NC(C)=O)c4)ncn3)CC2)cc1OC [CBK091029],148.966
2,N#CC(CC(=O)O)C(Cc1ccccc1)c1ccccc1 (centres unmarked) [CBK286837],107.373
3,CCNC(=O)Nc1cc2cccnc2nc1-c1ccc(S(C)(=O)=O)cc1 [CBK070706],109.243
4,Nc1ccc2c(c1)/C(=C/c1c[nH]c3ncccc13)C(=O)N2 [CBK010155T],153.99
5,Cc1ccc(O)cc1CC[C@@H]1CC(=O)CC2(C)C1CC[C@]2(O)C(=O)COC(=O)CCC(=O)O (some centres unmarked) [CBK007270],139.352
6,Cc1cc(C(=O)N2C3CCC2CC(O)(c2ccnn2C)C3)sc1C (centres unmarked) [CBK284518],90.9358
7,c1cnc(N2CCCC2)c(OC2CCOC2)n1 (centres unmarked) [CBK115891],110.468
8,COc1ccccc1N/C(=N\OCc1ccc(Cl)cc1Cl)c1nonc1N [CBK018391],78.5131
9,O=S(=O)(NC1CCCCC1Sc1nnc(Nc2ccccc2)s1)c1ccccc1 (centres unmarked) [CBK266378],140.636
10,COc1cccc(C2(NC(=O)CCn3nc(C)cc3C)CCCC2)c1 [CBK283749],109.722
11,CCn1c(CN2CCOCC2)nnc1SCC(=O)Nc1cc(Cl)ccc1C [CBK270183],148.009
12,COc1cc(/C=c2\sc3nc(-c4ccccc4OC(C)=O)nn3c2=O)ccc1OCc1ccccc1 [CBK264575],123.439
13,O=C1CC(c2ccccc2)CC(=O)N1c1nnn[nH]1 [CBK291154],151.551
14,COc1cc(-c2cn3ccnc3c(NCC3CC3)n2)ccc1O [CBK037538],157.202
15,Cc1nc2nc(N)nn2c(C)c1CCC(=O)NCc1cccc(Cl)c1 [CBK304993],83.7872
16,O=C(NC(NC(=O)c1ccccc1F)c1ccc2c(c1)OCO2)c1ccccc1F [CBK265742],119.738
17,Cc1nc(S(=O)(=O)CCn2cccn2)n(C2CCCCC2)c1C [CBK305217],84.5184
18,Cc1cc(C)nc(NC(=N)NCc2ccccc2)n1 [CBK288157],100.469
19,CC1CCCCN1C(=O)Cn1c(C2CCOCC2)cc2cccnc21 (centres unmarked) [CBK284675],108.088
20,Cc1cc(Oc2ccccc2)nc(NCc2ccccc2)n1 [CBK003557],97.092
21,Cn1c(SCC(=O)N2CCN(c3ccccc3)CC2)nc2cc(Cl)ccc21 [CBK298295],157.508
22,CC(C)(C)OC(=O)N1CCC[C@H]([C@H](O)c2cccs2)C1 [CBK282301],142.949
23,OCCN(CCO)c1cncc(-c2cccc(C(F)(F)F)c2)n1 [CBK037917],116.343
24,O=c1nc2c(cn1[C@H]1C[C@@H](O)[C@@H](CO)O1)Sc1ccccc1N2 [CBK201237],196.987
25,CNC(=O)CSc1nc2ccccc2nc1C(F)(F)F [CBK107206],100.797
26,Nc1ncc(-c2ccc3c(c2)OCO3)nc1-c1ccc(O)cc1 [CBK122505],77.8919
